In publication PMC5174146:
These are yes or no findings as the source states them, for the method shown. Some binding calls cover weakened binding; strength is not graded here.

Target: apoferritin (UniProt P02791)
Assay: native MS; protein mixture (native PAGE molecular weight markers) buffer-exchanged into 100 mM aqueous ammonium acetate pH 7; Orbitrap EMR, parameters optimised for the m/z window of each protein/complex, spectra stitched together; both purified

B1: apoferritin (protein, UniProt P02791 1-175)
chain: MSSQIRQNYSTEVEAAVNRLVNLYLRASYTYLSLGFYFDRDDVALEGVCHFFRELAEEKREGAERLLKMQNQRGGRALFQDLQKPSQDEWGTTLDAMKAAIVLEKSLNQALLDLHALGSAQADPHLCDFLESHFLDEEVKLIKKMGDHLTNIQRLVGSQAGLGEYLFERLTLKHD
binding: binds
